No constants are given. Whether binding was seen depends on the method and setting. Some results given as binding are weak or reduced against the parent protein; the word gives no strength.
T1: NRS natively expressed in human cells (HeLa cell lysate) (human) (UniProt O43776)
T1 sequence (looked up): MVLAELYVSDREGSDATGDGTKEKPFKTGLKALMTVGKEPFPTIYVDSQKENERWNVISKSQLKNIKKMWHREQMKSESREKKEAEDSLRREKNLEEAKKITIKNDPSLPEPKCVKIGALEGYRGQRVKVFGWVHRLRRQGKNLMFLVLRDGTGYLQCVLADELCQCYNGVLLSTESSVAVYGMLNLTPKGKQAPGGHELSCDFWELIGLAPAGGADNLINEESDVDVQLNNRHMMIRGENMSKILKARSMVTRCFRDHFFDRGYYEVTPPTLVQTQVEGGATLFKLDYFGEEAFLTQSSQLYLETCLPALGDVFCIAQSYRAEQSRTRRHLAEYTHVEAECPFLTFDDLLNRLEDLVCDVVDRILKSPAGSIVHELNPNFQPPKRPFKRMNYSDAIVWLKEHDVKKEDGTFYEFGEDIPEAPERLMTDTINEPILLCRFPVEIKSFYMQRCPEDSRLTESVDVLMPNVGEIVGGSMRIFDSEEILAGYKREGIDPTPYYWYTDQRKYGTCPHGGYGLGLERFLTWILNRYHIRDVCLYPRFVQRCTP


Target: T1, NRS natively expressed in human cells (HeLa cell lysate) (human)
Test: western blot on HeLa cell lysate with periplasmic scFv (clones from phage panning on NRS), anti-HA-HRP detection

binding	Binder
binds	SEQ ID NO 28 (scFv) scFv: EVQLLESGGGLVQPGGSLRLSCAASGFTFSNYAMSWVRQAPGKGLEWVSWIYHGGGDTYYADSVKGRFTISRDNSKNTLYLQMNSLRAEDTAVYYCARGAKAPMSFDYWGQGTLVTVSSGGGGSGGGGPGGGGSQSVLTQPPSASGTPGRRVTISCSGSSSNIGNNSVSWYQQLPGTAPKLLIYANSHRPSGVPDRFSGSKSGTSASLAISGLRSEDEADYYCAAWDSSLSAYVFGGGTKLTVL
binds	SEQ ID NO 56 (scFv) scFv: EVQLLESGGGLVQPGGSLRLSCAASGFTFSNYAMSWVRQAPGKGLEWVSWIYHGGGDTYYADSVKGRFTISRDNSKNTLYLQMNSLRAEDTAVYYCARGAKAPMSFDYWGQGTLVTVSSGGGGSGGGGPGGGGSQSVLTQPPSASGTPGRRVTISCSGSSSNIGNNSVSWYQQLPGTAPKLLIYANSHRPSGVPDRFSGSKSGTSASLAISGLRSEDEADYYCAAWDSSLSAYVFGGGTKLTVL

— patent publication KR20150077887A
